Source: PMC6566402
Results are given in words; binding and its absence hold for the method and conditions named. In cells and extracts the contact can be indirect. Some entries that bind do so weakly or less than the wild type.

The chains behind the UniProt entries cited, without tags or fusion partners. Where a name states a change or a piece, a line headed by the entry shows the natural chain unless it says otherwise.
UniProt P30543: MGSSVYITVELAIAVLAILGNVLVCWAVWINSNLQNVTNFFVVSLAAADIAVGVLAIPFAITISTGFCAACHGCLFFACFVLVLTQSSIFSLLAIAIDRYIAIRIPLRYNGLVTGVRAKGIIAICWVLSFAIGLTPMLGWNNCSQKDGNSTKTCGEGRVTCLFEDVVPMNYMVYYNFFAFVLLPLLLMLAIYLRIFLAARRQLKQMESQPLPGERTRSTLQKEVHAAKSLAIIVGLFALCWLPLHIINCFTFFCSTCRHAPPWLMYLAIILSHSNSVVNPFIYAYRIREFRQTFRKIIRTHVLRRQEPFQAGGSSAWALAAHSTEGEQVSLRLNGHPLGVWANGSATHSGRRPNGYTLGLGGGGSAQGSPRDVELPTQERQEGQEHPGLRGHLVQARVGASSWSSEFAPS
UniProt P61169: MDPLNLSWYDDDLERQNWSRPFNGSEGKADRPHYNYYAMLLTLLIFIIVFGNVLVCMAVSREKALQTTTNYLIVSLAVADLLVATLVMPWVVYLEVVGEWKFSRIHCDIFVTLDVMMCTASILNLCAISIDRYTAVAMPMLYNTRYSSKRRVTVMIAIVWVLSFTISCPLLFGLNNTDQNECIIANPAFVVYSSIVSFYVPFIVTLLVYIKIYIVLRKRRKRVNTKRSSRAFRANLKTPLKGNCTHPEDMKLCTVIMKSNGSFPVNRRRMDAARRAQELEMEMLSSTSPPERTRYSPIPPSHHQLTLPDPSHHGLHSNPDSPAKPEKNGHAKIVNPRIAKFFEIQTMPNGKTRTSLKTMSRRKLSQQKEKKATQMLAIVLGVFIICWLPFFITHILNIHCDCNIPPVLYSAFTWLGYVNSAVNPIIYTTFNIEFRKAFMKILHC

How the values were obtained:
[1] = target: adenosine A2A receptor (rat (endogenous in striatal astrocyte processes and striatal slices)) (UniProt P30543); experiment: co-IP; 300 ug Triton X-100-soluble membrane proteins of rat striatal gliosomes; 1 ug anti-A2A or anti-D2 antibody overnight at 4 °C, protein G-sepharose; 50 mM sodium borate, 0.1 mM EDTA, pH 7.5, 0.2% Triton X-100; immunoblot of IP and Output
[2] = target: dopamine D2 receptor (rat (endogenous in striatal astrocyte processes and striatal slices)) (UniProt P61169); experiment: proximity ligation; in situ PLA (Duolink) on 10 µm rat striatal slices with anti-A2A and anti-D2 primary antibodies; GFAP co-staining to identify astrocytes; confocal microscopy
[3] = target: dopamine D2 receptor (rat (endogenous in striatal astrocyte processes and striatal slices)) (UniProt P61169); experiment: co-IP; 300 ug Triton X-100-soluble membrane proteins of rat striatal gliosomes; 1 ug anti-A2A or anti-D2 antibody overnight at 4 °C, protein G-sepharose; 50 mM sodium borate, 0.1 mM EDTA, pH 7.5, 0.2% Triton X-100; immunoblot of IP and Output

Substance | binding [1] | binding [2] | binding [3]
dopamine D2 receptor (from UniProt P61169 1-444) | binds | – | –
adenosine A2A receptor (from UniProt P30543 1-410) | – | binds | binds
